## Screening data, single-dose tests

Chains of the proteins cited; added tags and fusions are not shown.
UniProt P9WFT3, whole entry: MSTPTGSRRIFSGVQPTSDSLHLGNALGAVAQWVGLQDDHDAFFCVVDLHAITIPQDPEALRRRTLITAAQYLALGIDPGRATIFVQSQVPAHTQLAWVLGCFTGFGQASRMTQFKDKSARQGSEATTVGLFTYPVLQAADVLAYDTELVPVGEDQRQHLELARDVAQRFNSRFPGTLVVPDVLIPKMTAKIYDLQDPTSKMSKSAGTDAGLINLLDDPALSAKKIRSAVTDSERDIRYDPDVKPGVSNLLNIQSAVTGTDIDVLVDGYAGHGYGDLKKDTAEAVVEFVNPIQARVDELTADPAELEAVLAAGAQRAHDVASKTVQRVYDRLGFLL
UniProt I6X8D2, whole entry: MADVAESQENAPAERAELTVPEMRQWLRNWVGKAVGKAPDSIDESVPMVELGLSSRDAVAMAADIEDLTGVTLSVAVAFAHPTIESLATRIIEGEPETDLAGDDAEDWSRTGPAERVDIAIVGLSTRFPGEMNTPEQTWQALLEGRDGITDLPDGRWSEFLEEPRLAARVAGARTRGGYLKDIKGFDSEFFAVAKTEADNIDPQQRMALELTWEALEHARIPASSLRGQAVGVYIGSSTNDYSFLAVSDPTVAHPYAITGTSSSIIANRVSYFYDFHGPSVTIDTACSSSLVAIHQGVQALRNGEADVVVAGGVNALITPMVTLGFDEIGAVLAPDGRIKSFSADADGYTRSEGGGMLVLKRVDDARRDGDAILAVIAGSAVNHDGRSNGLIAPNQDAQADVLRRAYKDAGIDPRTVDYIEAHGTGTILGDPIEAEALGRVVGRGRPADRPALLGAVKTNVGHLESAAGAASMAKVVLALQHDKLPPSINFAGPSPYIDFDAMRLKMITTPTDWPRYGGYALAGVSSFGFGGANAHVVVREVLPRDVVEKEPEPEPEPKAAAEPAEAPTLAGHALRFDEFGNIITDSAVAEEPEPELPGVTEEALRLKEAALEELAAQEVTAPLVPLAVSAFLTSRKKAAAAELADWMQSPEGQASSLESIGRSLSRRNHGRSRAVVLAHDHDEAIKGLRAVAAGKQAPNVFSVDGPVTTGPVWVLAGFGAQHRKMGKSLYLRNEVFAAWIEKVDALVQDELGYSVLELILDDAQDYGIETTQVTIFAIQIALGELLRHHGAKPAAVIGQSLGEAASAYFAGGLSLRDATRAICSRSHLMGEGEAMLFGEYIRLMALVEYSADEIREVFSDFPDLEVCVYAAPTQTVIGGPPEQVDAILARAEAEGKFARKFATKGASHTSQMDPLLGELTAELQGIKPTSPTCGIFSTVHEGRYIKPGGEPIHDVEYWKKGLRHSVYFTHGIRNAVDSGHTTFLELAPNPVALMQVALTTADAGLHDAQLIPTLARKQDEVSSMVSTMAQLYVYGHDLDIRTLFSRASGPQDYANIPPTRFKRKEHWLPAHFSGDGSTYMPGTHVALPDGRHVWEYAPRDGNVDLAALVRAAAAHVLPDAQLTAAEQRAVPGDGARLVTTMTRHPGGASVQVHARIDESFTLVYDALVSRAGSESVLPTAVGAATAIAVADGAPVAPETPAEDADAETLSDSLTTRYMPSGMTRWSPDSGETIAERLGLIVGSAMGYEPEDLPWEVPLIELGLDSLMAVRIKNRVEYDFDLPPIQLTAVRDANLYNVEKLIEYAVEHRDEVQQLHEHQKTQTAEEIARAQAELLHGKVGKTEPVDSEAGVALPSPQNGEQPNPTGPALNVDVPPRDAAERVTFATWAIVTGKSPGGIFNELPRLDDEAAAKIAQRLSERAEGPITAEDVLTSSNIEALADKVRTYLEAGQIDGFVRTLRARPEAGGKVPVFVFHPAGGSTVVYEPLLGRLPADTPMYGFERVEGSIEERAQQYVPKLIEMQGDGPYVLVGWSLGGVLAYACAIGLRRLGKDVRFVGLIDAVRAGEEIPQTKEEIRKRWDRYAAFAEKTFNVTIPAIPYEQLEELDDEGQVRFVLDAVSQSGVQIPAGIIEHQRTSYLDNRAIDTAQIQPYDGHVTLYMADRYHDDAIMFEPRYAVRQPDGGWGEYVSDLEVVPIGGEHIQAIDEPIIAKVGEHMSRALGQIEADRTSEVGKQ
UniProt P9WNZ1, whole entry: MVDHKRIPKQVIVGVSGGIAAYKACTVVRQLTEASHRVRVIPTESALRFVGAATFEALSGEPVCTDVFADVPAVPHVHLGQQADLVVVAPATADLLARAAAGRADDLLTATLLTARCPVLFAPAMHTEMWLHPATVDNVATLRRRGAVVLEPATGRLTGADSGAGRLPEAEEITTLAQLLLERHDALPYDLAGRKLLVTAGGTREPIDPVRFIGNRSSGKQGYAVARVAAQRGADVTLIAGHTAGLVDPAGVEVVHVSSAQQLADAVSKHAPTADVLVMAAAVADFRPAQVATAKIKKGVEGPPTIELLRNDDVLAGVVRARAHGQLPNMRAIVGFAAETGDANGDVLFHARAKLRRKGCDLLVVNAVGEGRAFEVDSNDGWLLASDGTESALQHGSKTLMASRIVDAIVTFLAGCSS

A: 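Tryptophan-tRNA ligase, Mycobacterium tuberculosis (UniProt P9WFT3). Enzyme assay of tryptophanyl-tRNA synthetase; the read-out is not stated. Tested at 10 µM. Direction is not recorded; retested compounds ran higher, which suggests that high means inhibition. Of about 65,000 compounds tested this way, about 64 (0.098%) reached 50% or more in at least one test.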
B: 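Polyketide synthase Pks13, Mycobacterium tuberculosis (UniProt I6X8D2). Enzyme assay of the thioesterase domain of polyketide synthase 13; the read-out is not stated. Tested at 30 µM. Higher reads as stronger inhibition (inferred from which compounds were picked for retests). About 67,000 compounds were tested under these conditions; 0.46% (about 300) showed 50% or more at least once.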
C: 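Enzyme assay of CoaBC with a phosphate dye (Biomol Green) read at 650 nm. Target: Coenzyme A biosynthesis protein CoaBC, Mycobacterium tuberculosis (UniProt P9WNZ1). Compounds at 30 µM. Direction is inferred from only a few compounds that gave an IC50; most scored high, so higher reads as stronger inhibition. Most strong results did not repeat in a second test. About 67,000 compounds were tested under these conditions; 0.06% (about 40) showed 50% or more at least once.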

The filed quantity is “Percent Effect” (%). How 0% and 100% were set is not recorded. Most values in the screen are low, and negative values occur. This is an unselected part of the compounds tested. A dash means the value is not listed here; it may have been measured.

Compound,A,B,C
N[C@H]1CN(C(=O)Cc2cc(F)cc(Cl)c2)C[C@@H]1C1CC1,4.636,-9.186,2.561
Cc1occc1C(=O)N1CCCC1c1ccc(C(=O)N2CCOCC2)s1 (stereo unspecified),-5.862,-13.25,-1.869
CCCN(C(=O)CN1CCN(CC(C)O)CC1)C1=CCCCC1 (stereo unspecified),12.24,-4.972,-8.696
O=C(c1cnccn1)N1CCN2C[C@H](OCc3ccccn3)C[C@H]2C1,0.7345,-10.47,4.188
O=C(CC1CC2(CCN(CC3CC3)CC2)c2ccccc21)NC1CCC1 (stereo unspecified),-0.9213,-0.6478,-7.431
CC(C)N1[C@H](Cn2cncn2)C[C@@H]2CN(Cc3nccn3C)CC[C@@H]21,-6.787,-9.032,4.187
COc1c(C2CCCN2C(=O)c2ccc(C#N)cc2)c(C)nn1C (stereo unspecified),-4.639,-4.927,4.178
O=C(COC[C@]12COC[C@H]1CN(C1CCC1)C2)N1CCCC1,-,-57.74,2.469
Nc1nc(N2CCCCC2)ncc1C(=O)NCc1ccc(F)c(Cl)c1,2.894,14.92,3.281
Cc1cc(C)n(C2CN(C(=O)Cn3c(=O)c(C)nc4ccccc43)C2)n1,3.718,-20.59,0.4914
CC(C)[C@@H](C)NC(=O)N1CCn2nc(C(=O)NCCN(C)C)cc2C1,-1.751,-5.023,-0.3636
COc1c(CNC2CCc3ccccc32)c(C)nn1C (stereo unspecified),2.215,-11.24,-5.898
Cc1cccc(C(=O)NCCS(=O)(=O)Cc2ccccc2)c1,-5.635,-1.496,-0.3984
COc1ccc(C)c(NC(=O)NCc2cccc(N(C)C)n2)c1,-2.341,-13.66,8.884
O=C(c1ccnc(CC2COc3ccccc3C2)c1)N1CCCC1 (stereo unspecified),-2.601,6.552,4.642
CC1(C)OCC2(CO1)CN(S(=O)(=O)c1ccc(Br)s1)C2,-4.635,-4.104,0.2114
CC(NC(=O)N1CCS(=O)(=O)CC1)c1ccc(F)cc1Cl (stereo unspecified),-0.5045,-16.92,-
Cc1noc(COCC(=O)Nc2ccc(Br)c(C)n2)n1,17.32,-8.182,13.95
c1ccc2cc(OCCCN3CCn4c(nnc4C4CC4)C3)ccc2c1,2.205,-5.21,6.266
Cc1nc(C)n(C2CCCN(C(=O)c3ncoc3C(C)C)C2)n1 (stereo unspecified),-5.508,-15.89,15.72
CC(CNC(=O)N1CCC(CO)CC1)Cc1cccs1 (stereo unspecified),0.2018,-18.04,9.476
CCN(C(=O)CS(=O)(=O)Cc1cc(Cl)c2c(c1)OCCCO2)C1CC1,-0.8655,-26.08,3.342
Cn1c(=O)ccn(CC(=O)Nc2cnccc2O)c1=O,-0.5187,-1.431,-3.733
COc1ccc(-c2ccnc3nc(N4CCCCC4)[nH]c(=O)c23)cc1,-0.7779,74.98,1.316
Cc1cccc(-n2cnc(Cl)c2C(=O)O)c1,3.965,-0.9982,2.81
CCS(=O)(=O)c1cccc(C(=O)Nc2cccc3c2C(=O)N(C)C3=O)c1,8.583,-20.66,6.622
CCCS(=O)(=O)N1CCC2(CC1)CC(N1CCCC1)c1ccccc12 (stereo unspecified),3.391,-33.65,-
O=C(Cc1cccnc1)NCCS(=O)(=O)c1ccccc1F,0.9497,-14.39,8.949
Cc1nc(CNC(=O)NCCC2=CCCC2)oc1C,8.88,0.9604,-2.621
COc1ncccc1CNC(=O)c1cc(C)on1,-9.04,-8.701,6.403
CCOCC1CN(S(C)(=O)=O)Cc2cnn(CC3CCOCC3)c21 (stereo unspecified),1.438,-17.03,1.416
CSc1ccc(NCC(=O)NC(=O)NCC(F)(F)F)cc1F,-0.6224,-14.51,-2.97
CC(C)CN1CCC2(C=C(C(=O)N3CCCC3)c3ccccc32)CC1,2.413,-2.524,6.218
CCS(=O)(=O)NCCCNc1ncnc2cc(F)c(F)cc12,-5.909,-47.11,0.6424
Cc1ccc(C(NC(=O)Cc2nc3ncccn3n2)C2CC2)cc1 (stereo unspecified),-4.964,21.04,-8.468
O=C(NC1CC1)c1cc(NC(=O)N2CCSCC2)ccc1Cl,1.053,-21.63,6.341
Cc1cc(C2CCCCN2C(=O)c2cccn2C)nc2nccn12 (stereo unspecified),-3.137,8.028,1.607
COc1ccc(C(C)NCc2c[nH]nc2C)cc1OC (stereo unspecified),4.106,-12.69,2.561
CC(=O)N1CCO[C@@H]2CN(C(=O)c3cc(C)oc3C)CC[C@@H]2C1,2.528,-16.78,8.74
Cc1nc(-c2ccccc2)n(CC(=O)NC(C2CC2)C2CC2)n1,0.7333,-34.26,4.39
Cc1nn(CC(=O)O)c(C)c1NS(=O)(=O)c1cc2ccccc2s1,3.312,33.32,-2.427
CCc1cc(-c2nccn2-c2ccccc2CN2CCOCC2)on1,-6.364,-7.133,0.2415
COCc1ncn2c1CN(C(=O)Nc1ccccc1)CC2,-5.898,-36.38,-10.62
COCCc1noc(CN(C)c2nccc(C)n2)n1,-0.3632,-16.99,6.452
COc1ccc(C2CC(=O)Nc3c2cnn3C2CCCC2)cc1 (stereo unspecified),0.5848,1.826,3.947
CN(CCCc1ccc(C(F)(F)F)cc1)Cc1nccn1C,-1.321,-12.39,0.2484
O=C(c1cc(Cl)c2c(c1)OCCCO2)N(CC1CCOC1)C1CC1 (stereo unspecified),-0.5711,-1.837,-2.978
CC(C)Oc1nnc(SCC(=O)NCC(=O)N2CCCC2)s1,-3.121,-11.8,11.78
CS(=O)(=O)Cc1ccc(NC(=O)Cc2cccnc2)cc1F,-3.183,-7.978,-3.736
Cc1cccc(NC(=O)CN(C)C(=O)c2scnc2C)n1,-5.576,-2.312,-0.1203
Cc1cnn(CC2CCCN2Cc2cc(C)no2)c1 (stereo unspecified),-4.472,-10.97,4.348
C1CCN(CCOC2CCNCC2)C1,-9.533,-15.24,-21.63
CS(=O)(=O)Cc1nc(CNc2ccc(F)c(F)c2)cs1,1.639,-17.11,16.87
C=C(C)COc1cccc(C(=O)NC(C)c2nnn[nH]2)c1 (stereo unspecified),12.84,14.18,-9.877
COc1ncccc1NC(=O)C1CCOCC1,13.11,-16.96,12.05

Repeated from the top, 4 entries:

{"compound": "N[C@H]1CN(C(=O)Cc2cc(F)cc(Cl)c2)C[C@@H]1C1CC1", "A": 4.636, "B": -9.186, "C": 2.561}
{"compound": "Cc1occc1C(=O)N1CCCC1c1ccc(C(=O)N2CCOCC2)s1", "stereo": "stereo unspecified", "A": -5.862, "B": -13.25, "C": -1.869}
{"compound": "CCCN(C(=O)CN1CCN(CC(C)O)CC1)C1=CCCCC1", "stereo": "stereo unspecified", "A": 12.24, "B": -4.972, "C": -8.696}
{"compound": "O=C(c1cnccn1)N1CCN2C[C@H](OCc3ccccn3)C[C@H]2C1", "A": 0.7345, "B": -10.47, "C": 4.188}

Measurements from “University of Dundee, Small-Polar-MMV Screening Library” (2021), ChEMBL document CHEMBL3988442.